Data as given in article PMC12817906, “SVCV phosphoprotein hijacks phase separation to immobilize the IRF3-TBK1 signaling axis and suppress interferon antiviral immunity” (Journal of Virology, 2025).
These are yes or no findings as the source states them, for the method shown. Binding seen in cells or lysates may run through a third protein. Some entries that bind do so weakly or less than the wild type. Tags and fused reporters may be left off the sequences shown.

Chains of the proteins cited; added tags and fusions are not shown.
UniProt A0ACM8QAS8: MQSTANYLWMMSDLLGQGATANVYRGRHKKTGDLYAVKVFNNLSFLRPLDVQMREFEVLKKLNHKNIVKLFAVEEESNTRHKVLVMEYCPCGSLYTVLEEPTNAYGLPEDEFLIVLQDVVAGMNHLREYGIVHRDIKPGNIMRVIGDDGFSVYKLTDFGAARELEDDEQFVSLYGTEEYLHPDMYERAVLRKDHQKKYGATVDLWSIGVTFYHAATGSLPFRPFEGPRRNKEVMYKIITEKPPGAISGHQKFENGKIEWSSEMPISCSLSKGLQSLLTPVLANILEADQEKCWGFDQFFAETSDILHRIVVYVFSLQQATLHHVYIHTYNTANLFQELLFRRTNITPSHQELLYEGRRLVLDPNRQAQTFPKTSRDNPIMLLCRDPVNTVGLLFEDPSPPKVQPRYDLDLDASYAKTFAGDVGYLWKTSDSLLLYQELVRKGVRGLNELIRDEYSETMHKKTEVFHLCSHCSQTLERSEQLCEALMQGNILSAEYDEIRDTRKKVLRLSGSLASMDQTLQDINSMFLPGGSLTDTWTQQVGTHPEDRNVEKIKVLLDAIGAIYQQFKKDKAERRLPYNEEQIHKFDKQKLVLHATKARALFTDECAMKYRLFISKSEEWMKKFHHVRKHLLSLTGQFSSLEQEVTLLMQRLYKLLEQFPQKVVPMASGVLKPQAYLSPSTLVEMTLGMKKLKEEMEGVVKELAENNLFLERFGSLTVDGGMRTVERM

Tests used:
Experiment in all cases: co-IP; HEK293T cells co-transfected with the two tagged plasmids; lysate incubated with tag antibody overnight at 4°C, protein A-agarose beads, Western blot; in Fig. 4G cells treated with 1,6-HEX before lysis
[1] = target: T1, Myc-tagged SVCV phosphoprotein (SVCV-P) (spring viremia of carp virus (SVCV)) (UniProt Q91DS2)
T1 sequence: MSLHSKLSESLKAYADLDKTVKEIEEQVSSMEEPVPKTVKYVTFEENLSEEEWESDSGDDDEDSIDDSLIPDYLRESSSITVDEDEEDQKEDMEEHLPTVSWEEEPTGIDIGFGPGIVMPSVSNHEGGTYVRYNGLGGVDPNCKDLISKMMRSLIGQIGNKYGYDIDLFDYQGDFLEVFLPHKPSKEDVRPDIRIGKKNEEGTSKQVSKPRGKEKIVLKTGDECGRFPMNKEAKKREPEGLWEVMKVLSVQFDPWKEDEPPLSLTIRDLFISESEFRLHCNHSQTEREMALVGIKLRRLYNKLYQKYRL

[2] = target: T2, EGFP-SVCV-P full length (spring viremia of carp virus (SVCV)) (UniProt Q91DS2)
T2 sequence: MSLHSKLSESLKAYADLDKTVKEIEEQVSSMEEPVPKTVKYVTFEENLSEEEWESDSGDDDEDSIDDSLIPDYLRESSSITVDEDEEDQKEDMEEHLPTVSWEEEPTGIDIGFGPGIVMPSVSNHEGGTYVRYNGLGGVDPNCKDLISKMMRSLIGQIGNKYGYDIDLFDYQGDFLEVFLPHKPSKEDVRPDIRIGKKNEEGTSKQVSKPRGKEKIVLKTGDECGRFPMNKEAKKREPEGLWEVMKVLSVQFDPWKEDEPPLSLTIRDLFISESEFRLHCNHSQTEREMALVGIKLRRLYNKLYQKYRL

[3] = target: EGFP-TBK1 full length (zebrafish) (zebrafish)

For “Flag-tagged zebrafish TBK1 (from UniProt A0ACM8QAS8 1-727) (enzyme)”, the binding [1] was “binds” and the binding [2] was “binds”.

“HA-tagged zebrafish TBK1 (from UniProt A0ACM8QAS8 1-727) (enzyme)” was tested, and the binding [1] was “binds”.

B1: purified recombinant SVCV-P (His-tagged) (natural protein)
chain: MSLHSKLSESLKAYADLDKTVKEIEEQVSSMEEPVPKTVKYVTFEENLSEEEWESDSGDDDEDSIDDSLIPDYLRESSSITVDEDEEDQKEDMEEHLPTVSWEEEPTGIDIGFGPGIVMPSVSNHEGGTYVRYNGLGGVDPNCKDLISKMMRSLIGQIGNKYGYDIDLFDYQGDFLEVFLPHKPSKEDVRPDIRIGKKNEEGTSKQVSKPRGKEKIVLKTGDECGRFPMNKEAKKREPEGLWEVMKVLSVQFDPWKEDEPPLSLTIRDLFISESEFRLHCNHSQTEREMALVGIKLRRLYNKLYQKYRL
notes: phosphoprotein (P) of spring viremia of carp virus; The MST methods say only 'purified SVCV-P'; the His-only construct is surmised (EGFP-GST, EGFP-His and baculovirus EGFP-His forms were also made); also called pET28a-SVCV-P-His; source: E. coli BL21 (DE3), purified (Ni-NTA)
For B1, the binding [3] was “binds”.
